## Melanoma cell counts after drug treatment

Data from the primary screen of doi:10.1371/journal.pone.0140310, rounded.

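The test systems are human melanoma cell lines, treated with a pair of drugs for 72 h and then stained and imaged. The read-out is cell count (nuclei) in % of the DMSO control; lower values mean stronger growth inhibition or killing. Concentrations were fixed for each drug; these are the lower of two levels, a fifth of the higher. These are primary screening values without error estimates.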 Only some of the drugs and lines screened are listed, without regard to their results. A dash means that no value is listed here.

Drug key:
docetaxel (0.0001 µM): CC(=O)O[C@@]12CO[C@@H]1C[C@H](O)[C@@]1(C)C(=O)[C@H](O)C3=C(C)[C@@H](OC(=O)[C@H](O)[C@@H](NC(=O)OC(C)(C)C)c4ccccc4)C[C@@](O)([C@@H](OC(=O)c4ccccc4)[C@H]21)C3(C)C
YM155 (0.0004 µM): COCC[n+]1c2c(n(Cc3cnccn3)c1C)C(=O)c1ccccc1C2=O
JZL184 (1 µM): O=C(Oc1ccc([N+](=O)[O-])cc1)N1CCC(C(O)(c2ccc3c(c2)OCO3)c2ccc3c(c2)OCO3)CC1
tozasertib (0.006 µM): Cc1cc(Nc2cc(N3CCN(C)CC3)nc(Sc3ccc(NC(=O)C4CC4)cc3)n2)n[nH]1
bortezomib (0.001 µM): CC(C)C[C@H](NC(=O)[C@H](Cc1ccccc1)NC(=O)c1cnccn1)B(O)O

| Cell line | tozasertib + YM155 | docetaxel + JZL184 | JZL184 + YM155 | JZL184 + bortezomib | bortezomib + docetaxel | tozasertib + bortezomib | docetaxel + tozasertib | YM155 + bortezomib |
|---|---|---|---|---|---|---|---|---|
| 501mel | - | 70.4 | - | 32.6 | - | - | - | - |
| COLO 829 | 87.9 | 61.6 | 92.1 | 50.3 | 42.2 | 86.9 | 56.6 | 59.0 |
| A2058 | 81.1 | 11.1 | 72.5 | 76.3 | 10.8 | 87.6 | 16.2 | 63.9 |
| A101D | 91.3 | 54.2 | 97.0 | 26.3 | 61.8 | 66.7 | 63.4 | 23.9 |
| COLO 800 | 67.1 | 49.3 | 81.8 | 121 | 30.0 | 77.2 | 35.8 | 117 |
| COLO 792 | 99.5 | 36.3 | 89.4 | 90.4 | 33.1 | 108 | 47.7 | 98.8 |
| LB2518-MEL | 95.0 | 63.6 | - | 37.7 | - | 61.3 | 72.7 | 44.1 |
| G-361 | 114 | 25.6 | 87.1 | 4.5 | 19.1 | 44.7 | 37.3 | 12.1 |
| A375 | 81.5 | - | 67.5 | - | 21.1 | 108 | 53.3 | 72.0 |
| LOX IMVI | 76.1 | 71.2 | 75.1 | 62.8 | 65.0 | 82.6 | 60.5 | 59.3 |
| MEL-HO | 103 | 72.7 | 96.9 | 98.8 | 51.3 | 103 | 59.9 | 91.0 |
| IPC-298 | 103 | 66.1 | 98.2 | 68.1 | 53.9 | 88.6 | 81.4 | 85.7 |
| C32 | 84.9 | 82.6 | 102 | 93.7 | 87.1 | 93.4 | 69.2 | 92.6 |
| IST-MEL1 | 98.5 | 68.2 | 89.3 | 88.5 | 55.4 | 95.9 | 63.6 | 81.3 |

Some entries from above, unchanged:

Cell line	tozasertib + YM155	docetaxel + JZL184	JZL184 + YM155	JZL184 + bortezomib	bortezomib + docetaxel	tozasertib + bortezomib	docetaxel + tozasertib	YM155 + bortezomib
IST-MEL1	98.5	68.2	89.3	88.5	55.4	95.9	63.6	81.3
G-361	114	25.6	87.1	4.5	19.1	44.7	37.3	12.1